# The list shows only some results of the screen, not a fair sample: it is rich in T/C values a quarter to a half above the control, in often repeated tests (any T/C) and in doses without a T/C. Further doses and runs are listed elsewhere. T/C is the treated group as % of the vehicle group. Some entries give survivors of the animals treated and no T/C: the source files T/C as zero there, which appears to mark a toxic dose or a test without result, not a measured value. Some doses without a T/C left all or most animals alive at the check, yet need not have been tolerated: the source hardly ever lists a survival T/C far under the control, and the zero likely stands for such cases as well. Counts of survivors are from the toxicity check (mostly the fifth day) where no day follows; animals may have died later. Schedule codes are those of the source, read here as Q, the interval in days (D) or hours (H), X, the number of doses. Some entries hold several experiments; the results are listed from low to high. Some molecules as drawn cover several salts, stereoisomers or complexes of the source; a dose is that of the sample tested. For survival time, this PubChem deposit counts one and a half times the control or more as active, and values a quarter to a half above the control carry no call in these data; other NCI protocols may use other cut-offs. Some T/C values are followed by the survivors on the day toxicity was checked, most often the fifth; without a count, all were alive then. Counts like (3×) count equal records among those shown.
# Tested on: P388 leukemia ip, CD2F1 mice, survival T/C
# Experiment: NCI In Vivo Anticancer Drug Screen. Data for tumor model P388 Leukemia (intraperitoneal) in CD2F1 (CDF1) mice
# Conditions: T/C endpoint: median survival time, higher T/C = longer survival
# [1] = dose: 20.0 mg/kg/injection, schedule: Q01DX009 (ip), vehicle: saline + alcohol
# [2] = dose: 100.0 mg/kg/injection, schedule: Q01DX009 (ip), vehicle: water
structure (smiles),measurement,setting,value
COc1cc(C2c3cc4c(cc3OC(C)(OC)C2C)OCO4)cc(OC)c1OC (stereo unspecified),survivor count,"dose: 30.0 mg/kg/injection, schedule: Q01DX005 (ip), vehicle: saline",6 of 6
same,T/C,"dose: 120.0 mg/kg/injection, schedule: Q01DX005 (ip), vehicle: saline",146 % of control
same,survivor count,"dose: 240.0 mg/kg/injection, schedule: Q01DX005 (ip), vehicle: saline",2 of 6
[Cl][Hg][c]1cccc(I)c1N=Nc1ccccc1,T/C,"dose: 10.0 mg/kg/injection, schedule: Q01DX009 (ip), vehicle: saline + alcohol","87, 100, 100 [5 of 6 alive], 104 % of control"
same,T/C,[1],"87, 91, 128 % of control [5 of 6 alive]"
same,survivor count,[1],2 of 6
same,survivor count,"dose: 40.0 mg/kg/injection, schedule: Q01DX009 (ip), vehicle: saline + alcohol",0 of 6 and 1 of 6
same,survivor count,"dose: 50.0 mg/kg/injection, schedule: Q01DX009 (ip), vehicle: saline + alcohol",0 of 6
same,survivor count,"dose: 100.0 mg/kg/injection, schedule: Q01DX009 (ip), vehicle: saline + alcohol",0 of 6
same,survivor count,"dose: 200.0 mg/kg/injection, schedule: Q01DX009 (ip), vehicle: saline + alcohol",0 of 6
O=C(Nc1ccc(C2=NCCN2)cc1)c1ccc(C(=O)Nc2ccc(C3=NCCN3)cc2)c(Cl)c1,T/C,"dose: 1.56 mg/kg/injection, schedule: Q01DX009 (ip), vehicle: saline with Tween-80",132 % of control
same,T/C,"dose: 8.0 mg/kg/injection, schedule: Q01DX010 (ip), vehicle: water",127 % of control
same,T/C,"dose: 12.0 mg/kg/injection, schedule: Q01DX010 (ip), vehicle: water",136 % of control
same,T/C,"dose: 16.0 mg/kg/injection, schedule: Q01DX010 (ip), vehicle: water",145 % of control
same,T/C,"dose: 16.2 mg/kg/injection, schedule: Q04DX003 (ip), vehicle: saline",125 % of control
same,T/C,"dose: 27.0 mg/kg/injection, schedule: Q04DX003 (ip), vehicle: saline",137 % of control
same,survivor count,"dose: 75.0 mg/kg/injection, schedule: Q04DX003 (ip), vehicle: saline",0 of 8
same,survivor count,"dose: 125.0 mg/kg/injection, schedule: Q04DX003 (ip), vehicle: saline",0 of 8
Nc1nncs1,T/C,"dose: 12.5 mg/kg/injection, schedule: Q01DX009 (ip), vehicle: water, evaluated on day 30",139 and 145 % of control (2×)
same,T/C,"dose: 12.5 mg/kg/injection, schedule: Q01DX009 (ip), vehicle: water, evaluated on day 35",110 % of control
same,T/C,"dose: 15.0 mg/kg/injection, schedule: Q01DX009 (ip), vehicle: water",128 % of control
same,T/C,"dose: 25.0 mg/kg/injection, schedule: Q01DX009 (ip), vehicle: water, evaluated on day 30","166, 181, 193 % of control"
same,T/C,"dose: 25.0 mg/kg/injection, schedule: Q01DX009 (ip), vehicle: water, evaluated on day 35",162 % of control
same,T/C,"dose: 30.0 mg/kg/injection, schedule: Q01DX009 (ip), vehicle: water",140 % of control
same,T/C,"dose: 40.0 mg/kg/injection, schedule: Q01DX005 (ip), vehicle: saline",136 % of control
same,T/C,"dose: 50.0 mg/kg/injection, schedule: Q01DX009 (ip), vehicle: water, evaluated on day 30",90 and 168 % of control
same,T/C,"dose: 50.0 mg/kg/injection, schedule: Q01DX009 (ip), vehicle: water, evaluated on day 35",162 % of control
same,survivor count,"dose: 50.0 mg/kg/injection, schedule: Q01DX009 (ip), vehicle: water",4 of 6
same,T/C,[2],90 % of control
same,survivor count,[2],"2 of 6, 5 of 6, 6 of 6"
same,survivor count,"dose: 120.0 mg/kg/injection, schedule: Q01DX009 (ip), vehicle: water",6 of 6
same,survivor count,"dose: 200.0 mg/kg/injection, schedule: Q01DX009 (ip), vehicle: water",5 of 6 and 6 of 6
CCOC(=O)C1=C(C(=O)c2ccc(OC)cc2)C(c2ccc(OC)c(OC)c2)C(C(=O)c2ccc(OC)cc2)=C(C(=O)OCC)N1,survivor count,"dose: 240.0 mg/kg/injection, schedule: Q01DX005 (ip), vehicle: saline with Tween-80",5 of 6
Cc1c2c(Cc3ccccc3)nccc2c(C)c2c1c1ccccc1n2Cc1ccccc1,survivor count,"dose: 25.0 mg/kg/injection, schedule: Q04DX003 (ip), vehicle: distilled water + Tween-80",6 of 6
same,survivor count,"dose: 100.0 mg/kg/injection, schedule: Q04DX003 (ip), vehicle: distilled water + Tween-80",6 of 6
same,survivor count,"dose: 200.0 mg/kg/injection, schedule: Q04DX003 (ip), vehicle: distilled water + Tween-80",6 of 6
CCCCNC(C)(C)C(SS)c1ccc(C(F)(F)F)cc1 (stereo unspecified),survivor count,"dose: 25.0 mg/kg/injection, schedule: Q04DX003 (ip), vehicle: other",3 of 6
CCCN(CCC)C(C)C(O)c1cc2c(c3ccccc13)CCCC2 (stereo unspecified),survivor count,"dose: 400.0 mg/kg/injection, schedule: Q01DX009 (ip), vehicle: Klucel (hydroxypropylcellulose) (HPC)",0 of 6
C=CC(O)CN1CC1 (stereo unspecified),T/C,"dose: 0.62 mg/kg/injection, schedule: Q01DX009 (ip), vehicle: saline",125 % of control
same,T/C,"dose: 1.5 mg/kg/injection, schedule: Q04DX003 (ip), vehicle: saline",140 % of control
same,survivor count,"dose: 5.0 mg/kg/injection, schedule: Q01DX009 (ip), vehicle: saline",0 of 6
same,survivor count,"dose: 10.0 mg/kg/injection, schedule: Q01DX009 (ip), vehicle: saline",0 of 6
same,T/C,"dose: 15.0 mg/kg/injection, schedule: Q04DX003 (ip), vehicle: saline",136 % of control
same,survivor count,"dose: 100.0 mg/kg/injection, schedule: Q04DX003 (ip), vehicle: saline with Tween-80",0 of 6
same,survivor count,"dose: 200.0 mg/kg/injection, schedule: Q04DX003 (ip), vehicle: saline with Tween-80",0 of 6
same,survivor count,"dose: 400.0 mg/kg/injection, schedule: Q04DX003 (ip), vehicle: saline with Tween-80",0 of 6
CC[C@@H]1CN2CCc3c([nH]c4ccccc34)[C@@](C(=O)OC)(c3cc4c(cc3OC)N(C)[C@H]3[C@@](O)(C(=O)OC)[C@H](OC(C)=O)[C@]5(CC)C=CCN6CC[C@]43[C@@H]65)C[C@H](C2)[C@H]1O,T/C,"dose: 8.0 mg/kg/injection, schedule: Q01DX001 (ip), vehicle: water",128 and 130 % of control
same,T/C,"dose: 16.0 mg/kg/injection, schedule: Q01DX001 (ip), vehicle: water",133 and 141 % of control
same,T/C,"dose: 32.0 mg/kg/injection, schedule: Q01DX001 (ip), vehicle: water",132 and 146 % of control
same,survivor count,"dose: 128.0 mg/kg/injection, schedule: Q01DX001 (ip), vehicle: water",4 of 6
OCC1OC(/C(N=Nc2ccccc2)=N\Nc2ccccc2)C(O)C1O (stereo unspecified),survivor count,"dose: 25.0 mg/kg/injection, schedule: Q01DX005 (ip), vehicle: saline with Tween-80",6 of 6
same,survivor count,"dose: 50.0 mg/kg/injection, schedule: Q01DX005 (ip), vehicle: saline with Tween-80",4 of 6
same,survivor count,"dose: 100.0 mg/kg/injection, schedule: Q01DX005 (ip), vehicle: saline with Tween-80",5 of 6
CS(C)=O,survivor count,"dose: 3.0 grams/kg/injection, schedule: Q01DX009 (ip), vehicle: saline",3 of 6
CN(C)N=Nc1ccc(C(N)=O)cc1,T/C,"dose: 100.0 mg/kg/injection, schedule: Q01DX009 (ip), vehicle: saline",133 % of control
O=C1c2ccccc2-c2c3c(cc4ccnc1c24)OCO3,survivor count,"dose: 12.5 mg/kg/injection, schedule: Q01DX009 (ip), vehicle: saline with Tween-80",6 of 6
same,survivor count,"dose: 25.0 mg/kg/injection, schedule: Q01DX009 (ip), vehicle: saline with Tween-80",6 of 6
Nc1n[nH]c(-c2ccccc2)n1,survivor count,"dose: 200.0 mg/kg/injection, schedule: Q01DX009 (ip), vehicle: saline with Tween-80",6 of 6
Cc1c(O)c2c(c(O)c1Cc1ccc(CN)cc1)C(=O)c1ccccc1C2=O,survivor count,"dose: 200.0 mg/kg/injection, schedule: Q04DX003 (ip), vehicle: water",5 of 6
O=C1OC2C3COC(=O)c4cc(O)c(O)c(O)c4-c4c(cc(O)c(O)c4O)C(=O)OC2C(OC(=O)c2cc(O)c(O)c4c2[C@@H]2C1=CC(=O)[C@](O)(O4)C2(O)O)C(OC(=O)c1cc(O)c(O)c(O)c1)O3 (stereo partly specified),survivor count,"dose: 50.0 mg/kg/injection, schedule: Q01DX005 (ip), vehicle: DMSO",5 of 6
same,survivor count,"dose: 100.0 mg/kg/injection, schedule: Q01DX005 (ip), vehicle: DMSO",0 of 6

# — PubChem BioAssay AID330 (DTP/NCI, 2004)
